# The list shows a part of the results. Most entries show no effect beyond the scatter of the controls.
# The chains behind the UniProt entries cited, without tags or fusion partners. Where a name states a change or a piece, a line headed by the entry shows the natural chain unless it says otherwise.
# UniProt Q96KG9: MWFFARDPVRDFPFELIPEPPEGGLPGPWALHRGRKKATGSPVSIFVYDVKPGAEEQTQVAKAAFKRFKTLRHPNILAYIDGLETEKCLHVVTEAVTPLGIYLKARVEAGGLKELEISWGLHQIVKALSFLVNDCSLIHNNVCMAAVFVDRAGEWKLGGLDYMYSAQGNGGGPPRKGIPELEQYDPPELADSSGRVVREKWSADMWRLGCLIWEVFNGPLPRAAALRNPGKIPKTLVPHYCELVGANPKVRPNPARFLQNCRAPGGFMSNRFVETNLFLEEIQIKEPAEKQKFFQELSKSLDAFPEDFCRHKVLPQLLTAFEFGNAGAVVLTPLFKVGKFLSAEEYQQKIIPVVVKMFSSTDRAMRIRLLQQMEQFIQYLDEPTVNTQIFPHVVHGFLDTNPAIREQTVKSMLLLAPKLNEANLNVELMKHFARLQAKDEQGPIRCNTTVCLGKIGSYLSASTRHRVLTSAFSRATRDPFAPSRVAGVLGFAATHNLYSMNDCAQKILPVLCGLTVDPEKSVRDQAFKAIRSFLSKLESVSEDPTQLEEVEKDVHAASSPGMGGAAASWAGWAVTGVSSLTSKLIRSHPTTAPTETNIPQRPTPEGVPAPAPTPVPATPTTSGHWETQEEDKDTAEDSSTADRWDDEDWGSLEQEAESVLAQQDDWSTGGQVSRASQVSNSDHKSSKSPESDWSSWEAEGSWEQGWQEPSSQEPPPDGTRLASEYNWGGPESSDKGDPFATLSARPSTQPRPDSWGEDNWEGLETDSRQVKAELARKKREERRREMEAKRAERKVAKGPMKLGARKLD
# UniProt Q99459: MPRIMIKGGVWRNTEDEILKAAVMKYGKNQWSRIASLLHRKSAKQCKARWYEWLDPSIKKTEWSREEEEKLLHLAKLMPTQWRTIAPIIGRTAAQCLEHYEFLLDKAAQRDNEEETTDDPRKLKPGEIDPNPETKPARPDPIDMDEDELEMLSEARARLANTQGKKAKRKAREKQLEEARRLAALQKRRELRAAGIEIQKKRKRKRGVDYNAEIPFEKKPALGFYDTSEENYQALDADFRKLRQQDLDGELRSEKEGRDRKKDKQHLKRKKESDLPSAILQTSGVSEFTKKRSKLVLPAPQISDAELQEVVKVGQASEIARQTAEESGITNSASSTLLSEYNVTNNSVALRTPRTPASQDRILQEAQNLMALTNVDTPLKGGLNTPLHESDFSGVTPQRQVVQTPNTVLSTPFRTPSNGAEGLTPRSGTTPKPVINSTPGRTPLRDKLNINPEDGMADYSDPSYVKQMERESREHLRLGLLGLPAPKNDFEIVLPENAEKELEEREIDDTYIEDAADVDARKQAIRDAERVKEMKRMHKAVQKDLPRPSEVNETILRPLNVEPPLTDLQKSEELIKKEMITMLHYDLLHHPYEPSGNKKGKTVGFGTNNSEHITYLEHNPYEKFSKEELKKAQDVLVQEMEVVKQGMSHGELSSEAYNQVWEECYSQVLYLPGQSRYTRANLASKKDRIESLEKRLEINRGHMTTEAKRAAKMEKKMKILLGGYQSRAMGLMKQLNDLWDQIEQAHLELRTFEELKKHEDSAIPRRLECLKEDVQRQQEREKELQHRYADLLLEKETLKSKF
# UniProt Q96GY3: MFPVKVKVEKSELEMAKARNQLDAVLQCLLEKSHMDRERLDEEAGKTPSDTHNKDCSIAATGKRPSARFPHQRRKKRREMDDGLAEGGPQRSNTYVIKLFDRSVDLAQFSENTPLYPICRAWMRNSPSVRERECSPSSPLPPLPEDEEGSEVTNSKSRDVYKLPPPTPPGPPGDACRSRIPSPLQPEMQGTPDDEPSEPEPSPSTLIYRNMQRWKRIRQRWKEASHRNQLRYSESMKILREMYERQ
# UniProt Q96MW7: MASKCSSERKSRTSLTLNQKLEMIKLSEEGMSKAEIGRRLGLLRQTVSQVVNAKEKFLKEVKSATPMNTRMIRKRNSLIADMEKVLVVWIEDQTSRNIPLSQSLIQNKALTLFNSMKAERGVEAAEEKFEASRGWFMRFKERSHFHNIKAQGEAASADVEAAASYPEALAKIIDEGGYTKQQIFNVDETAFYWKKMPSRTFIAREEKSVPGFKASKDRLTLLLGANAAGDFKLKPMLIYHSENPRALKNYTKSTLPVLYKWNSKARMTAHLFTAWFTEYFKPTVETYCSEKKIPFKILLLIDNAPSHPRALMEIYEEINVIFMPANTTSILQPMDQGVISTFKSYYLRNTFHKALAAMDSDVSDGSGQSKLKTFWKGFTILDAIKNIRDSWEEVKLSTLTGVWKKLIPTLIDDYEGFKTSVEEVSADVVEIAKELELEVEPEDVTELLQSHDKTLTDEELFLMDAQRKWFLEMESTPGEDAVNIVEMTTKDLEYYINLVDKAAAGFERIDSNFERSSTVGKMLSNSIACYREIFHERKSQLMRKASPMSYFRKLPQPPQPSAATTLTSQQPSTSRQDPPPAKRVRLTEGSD
# UniProt Q96JA3: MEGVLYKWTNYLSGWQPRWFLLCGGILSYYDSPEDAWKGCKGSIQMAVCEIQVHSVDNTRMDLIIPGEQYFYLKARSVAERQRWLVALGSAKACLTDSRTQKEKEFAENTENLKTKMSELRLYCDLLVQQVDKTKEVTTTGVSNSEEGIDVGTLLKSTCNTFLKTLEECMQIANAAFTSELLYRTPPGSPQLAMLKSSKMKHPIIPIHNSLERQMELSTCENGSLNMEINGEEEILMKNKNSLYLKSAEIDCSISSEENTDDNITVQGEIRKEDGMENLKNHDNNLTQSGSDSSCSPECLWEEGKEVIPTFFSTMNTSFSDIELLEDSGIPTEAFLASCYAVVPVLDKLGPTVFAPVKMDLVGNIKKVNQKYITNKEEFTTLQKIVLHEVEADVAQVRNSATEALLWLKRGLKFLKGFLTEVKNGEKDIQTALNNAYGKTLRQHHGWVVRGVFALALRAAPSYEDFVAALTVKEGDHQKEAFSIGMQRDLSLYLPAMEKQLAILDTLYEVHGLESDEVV
# UniProt Q96JH8: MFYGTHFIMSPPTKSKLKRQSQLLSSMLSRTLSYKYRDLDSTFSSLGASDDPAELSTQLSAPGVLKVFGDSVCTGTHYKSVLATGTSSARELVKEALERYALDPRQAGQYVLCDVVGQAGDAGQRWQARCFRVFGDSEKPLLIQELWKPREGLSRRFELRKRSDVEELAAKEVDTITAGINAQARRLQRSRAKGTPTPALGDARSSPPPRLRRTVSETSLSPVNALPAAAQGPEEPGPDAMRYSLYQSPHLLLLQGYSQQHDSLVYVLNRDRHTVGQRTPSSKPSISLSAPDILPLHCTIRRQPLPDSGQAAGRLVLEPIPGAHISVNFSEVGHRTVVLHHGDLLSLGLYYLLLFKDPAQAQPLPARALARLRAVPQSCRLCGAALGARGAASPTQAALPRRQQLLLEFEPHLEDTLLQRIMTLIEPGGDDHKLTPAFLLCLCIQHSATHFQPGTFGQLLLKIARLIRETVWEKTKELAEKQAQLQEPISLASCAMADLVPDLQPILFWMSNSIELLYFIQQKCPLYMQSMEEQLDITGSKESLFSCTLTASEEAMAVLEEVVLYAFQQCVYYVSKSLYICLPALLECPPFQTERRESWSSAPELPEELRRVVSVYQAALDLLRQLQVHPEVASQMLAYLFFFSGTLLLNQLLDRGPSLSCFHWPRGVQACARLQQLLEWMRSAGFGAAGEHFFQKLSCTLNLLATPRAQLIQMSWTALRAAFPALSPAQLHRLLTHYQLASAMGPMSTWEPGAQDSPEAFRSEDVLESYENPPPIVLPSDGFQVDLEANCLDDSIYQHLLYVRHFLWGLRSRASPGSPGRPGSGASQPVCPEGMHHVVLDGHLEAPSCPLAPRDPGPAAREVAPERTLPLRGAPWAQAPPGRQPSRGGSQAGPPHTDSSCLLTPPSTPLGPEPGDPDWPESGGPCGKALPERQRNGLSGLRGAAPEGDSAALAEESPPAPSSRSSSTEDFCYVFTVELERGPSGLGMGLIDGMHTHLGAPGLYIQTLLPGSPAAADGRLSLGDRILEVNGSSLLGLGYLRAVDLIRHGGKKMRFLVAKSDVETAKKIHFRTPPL
# UniProt Q96LA8, whole entry, looked up: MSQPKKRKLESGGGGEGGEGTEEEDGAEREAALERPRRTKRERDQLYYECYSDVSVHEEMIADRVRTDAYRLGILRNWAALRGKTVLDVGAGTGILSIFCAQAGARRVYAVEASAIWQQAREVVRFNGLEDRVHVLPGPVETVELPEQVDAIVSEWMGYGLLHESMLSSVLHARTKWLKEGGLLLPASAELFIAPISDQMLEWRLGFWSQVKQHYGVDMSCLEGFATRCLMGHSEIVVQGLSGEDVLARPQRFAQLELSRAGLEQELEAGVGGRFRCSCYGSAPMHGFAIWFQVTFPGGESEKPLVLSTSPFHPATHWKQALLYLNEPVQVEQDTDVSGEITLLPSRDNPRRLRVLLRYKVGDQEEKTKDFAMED
# UniProt Q96LR5: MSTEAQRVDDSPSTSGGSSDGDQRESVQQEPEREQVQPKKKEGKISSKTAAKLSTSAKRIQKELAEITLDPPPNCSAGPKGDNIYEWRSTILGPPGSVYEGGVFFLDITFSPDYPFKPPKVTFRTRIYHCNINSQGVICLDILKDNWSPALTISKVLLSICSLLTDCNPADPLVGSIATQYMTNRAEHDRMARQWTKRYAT
# UniProt Q96PV6, whole entry: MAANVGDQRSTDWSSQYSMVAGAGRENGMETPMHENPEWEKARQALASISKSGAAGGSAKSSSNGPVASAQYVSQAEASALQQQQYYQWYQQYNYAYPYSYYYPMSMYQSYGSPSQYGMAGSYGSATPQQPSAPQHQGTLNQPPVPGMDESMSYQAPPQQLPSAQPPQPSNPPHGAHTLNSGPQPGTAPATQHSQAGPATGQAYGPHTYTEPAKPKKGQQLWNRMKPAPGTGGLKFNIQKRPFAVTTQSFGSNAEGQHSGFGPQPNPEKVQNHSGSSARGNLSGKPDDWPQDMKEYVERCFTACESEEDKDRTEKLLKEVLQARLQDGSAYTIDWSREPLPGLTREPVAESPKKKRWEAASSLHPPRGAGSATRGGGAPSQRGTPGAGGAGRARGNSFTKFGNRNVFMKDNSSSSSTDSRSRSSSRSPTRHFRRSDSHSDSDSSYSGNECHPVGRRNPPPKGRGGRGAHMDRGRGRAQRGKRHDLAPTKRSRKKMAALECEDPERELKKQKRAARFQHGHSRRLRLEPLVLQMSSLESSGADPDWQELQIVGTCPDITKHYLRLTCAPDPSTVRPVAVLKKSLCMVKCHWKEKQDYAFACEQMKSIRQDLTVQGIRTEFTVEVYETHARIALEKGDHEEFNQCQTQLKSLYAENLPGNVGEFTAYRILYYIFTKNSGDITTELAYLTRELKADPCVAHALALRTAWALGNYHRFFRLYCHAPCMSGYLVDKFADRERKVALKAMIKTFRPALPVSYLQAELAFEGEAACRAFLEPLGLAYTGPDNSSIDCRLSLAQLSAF
# UniProt Q96KR1: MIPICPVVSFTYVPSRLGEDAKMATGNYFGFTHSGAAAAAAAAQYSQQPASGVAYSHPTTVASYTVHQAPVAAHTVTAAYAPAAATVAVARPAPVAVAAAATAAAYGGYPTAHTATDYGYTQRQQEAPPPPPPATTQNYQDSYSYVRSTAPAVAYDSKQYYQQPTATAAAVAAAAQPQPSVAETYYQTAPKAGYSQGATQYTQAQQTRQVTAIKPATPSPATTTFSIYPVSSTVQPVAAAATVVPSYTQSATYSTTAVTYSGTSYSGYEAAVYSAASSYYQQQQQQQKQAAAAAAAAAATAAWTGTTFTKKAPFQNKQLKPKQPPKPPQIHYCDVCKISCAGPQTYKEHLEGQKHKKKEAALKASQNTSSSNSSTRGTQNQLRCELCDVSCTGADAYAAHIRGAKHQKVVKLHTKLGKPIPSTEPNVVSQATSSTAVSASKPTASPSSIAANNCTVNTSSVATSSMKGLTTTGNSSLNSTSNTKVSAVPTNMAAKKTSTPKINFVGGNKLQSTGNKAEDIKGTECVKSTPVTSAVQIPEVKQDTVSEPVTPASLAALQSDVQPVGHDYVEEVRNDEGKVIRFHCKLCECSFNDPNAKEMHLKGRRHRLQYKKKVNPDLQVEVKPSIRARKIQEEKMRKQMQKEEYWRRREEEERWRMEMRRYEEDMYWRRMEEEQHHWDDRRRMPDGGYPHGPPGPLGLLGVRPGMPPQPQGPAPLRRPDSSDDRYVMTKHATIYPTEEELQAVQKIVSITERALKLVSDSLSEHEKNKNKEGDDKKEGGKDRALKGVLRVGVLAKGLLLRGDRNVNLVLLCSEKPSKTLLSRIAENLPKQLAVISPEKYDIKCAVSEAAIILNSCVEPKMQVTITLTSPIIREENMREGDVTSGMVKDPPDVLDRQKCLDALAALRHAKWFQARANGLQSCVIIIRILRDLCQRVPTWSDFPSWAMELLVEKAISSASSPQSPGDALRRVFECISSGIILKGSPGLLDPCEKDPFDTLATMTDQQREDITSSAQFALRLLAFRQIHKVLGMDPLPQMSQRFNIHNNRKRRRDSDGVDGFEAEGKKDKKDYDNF
# Compound: CN[C@@H]1C[C@H]2O[C@@](C)([C@@H]1OC)n1c3ccccc3c3c4c(c5c6ccccc6n2c5c31)C(=O)NC4 [staurosporine]
# Experiment: log2 fold change of tryptic peptide abundance, ligand vs vehicle (limited proteolysis) (log2 ratio); higher = more trypsin-susceptible (destabilized)
# Conditions: ligand concentration: 20 uM; sample: K562 cleared lysate; digestion: 4 min, 22 C (HT-PELSA RT4min, Orbitrap Astral)
row,Target,log2 fold change
1,"SCYL1 (peptide sequence: VLTSAFSR, peptide start residue: 467) (UniProt Q96KG9)",0.341
2,"GFM1 (peptide sequence: VYFDTENK, peptide start residue: 482) (UniProt Q96RP9)",0.0741
3,"CDC5L (peptide sequence: EIDDTYIEDAADVDAR, peptide start residue: 506) (UniProt Q99459)",-0.443
4,"WDR24 (peptide sequence: DMAPGLGSETRLDR, peptide start residue: 489) (UniProt Q96S15)",0.408
5,"LIN37 (peptide sequence: REMDDGLAEGGPQR, peptide start residue: 78) (UniProt Q96GY3)",-0.779
6,"UniProt Q96MW7 (peptide sequence: ILLLIDNAPSHPR, peptide start residue: 297)",-0.363
7,"PLEKHA8 (peptide sequence: MDLVGNIK, peptide start residue: 359) (UniProt Q96JA3)",-0.242
8,"UniProt Q96JH8 (peptide sequence: SVLATGTSSAR, peptide start residue: 80)",-0.243
9,"RUFY1 (peptide sequence: AAAGLGGGDSGDGTAR, peptide start residue: 87) (UniProt Q96T51)",-0.172
10,"PUS7 (peptide sequence: GYLVKCREEWAK, peptide start residue: 416) (UniProt Q96PZ0)",-0.629
11,"PRMT6 (peptide sequence: YKVGDQEEK, peptide start residue: 359) (UniProt Q96LA8)",0.754
12,"EGLN2 (peptide sequence: ATATSTTASPLR, peptide start residue: 66) (UniProt Q96KS0)",0.246
13,"UBE2E2 (peptide sequence: ESVQQEPEREQVQPK, peptide start residue: 25) (UniProt Q96LR5)",-0.22
14,"LENG8 (peptide sequence: ADPCVAHALALR, peptide start residue: 692) (UniProt Q96PV6)",-0.26
15,"ZFR (peptide sequence: RMEEEQHHWDDRR, peptide start residue: 670) (UniProt Q96KR1)",-0.295
16,"NSD1 (peptide sequence: RNCGRSK, peptide start residue: 1019) (UniProt Q96L73)",0.698

# Some values from the results shown.
# log2 fold change, UniProt Q96JH8 (peptide sequence: SVLATGTSSAR, peptide start residue: 80) is entered as -0.243
# log2 fold change, PUS7 (peptide sequence: GYLVKCREEWAK, peptide start residue: 416) (UniProt Q96PZ0) is entered as -0.629

# — the supplement of paper PMC12819154, “High-throughput peptide-centric local stability assay extends protein–ligand identification to membrane proteins, tissues and bacteria” (Nature Structural & Molecular Biology, 2025)
